# Experimental data: PubChem BioAssay AID504834 (National Center for Advancing Translational Sciences (NCATS), 2011)
# The whole screen tested about 320,000 compounds, of which about 22,000 (6.9%) were called active. Inconclusive results, whose numbers are uncertain, are shown with a selection of clear calls. Calls come from the whole dose curve; as a rule, active = well fitted inhibition curve with a large enough effect; inconclusive = small, poorly fitted or top-dose-only effect, or another doubt; inactive = no such curve, though single readings can be large or run the other way. Potencies beside an inconclusive call are fits to weak or partial responses and may not hold up.
# Assay: Primary qHTS for delayed death inhibitors of the malarial parasite plastid, 96 hour incubation
# Details: P. falciparum luciferase reporter growth; series mostly up to 28.7 µM
# Procedure, shortened: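 Infected RBCs, 2% Hct / 0.05% parasitemia final; luciferase-reporter P. falciparum; cpd 96 h, 37 C, 5% CO2; luciferase detection reagent; luminescence.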
# Potency is the fitted concentration of half-maximal effect.
row,SMILES,Potency
1,O=C(N/C(=C/C=C/c1ccccc1)C(=O)N1CCOCC1)c1ccccc1Br,inactive
2,O=[N+]([O-])c1ccccc1S(=O)(=O)Nc1ccn(Cc2c(F)cccc2Cl)n1,"inconclusive: 9.28 µM [inhibitor, single point]"
3,Cc1cc(OC(C)C(=O)NCc2ccncc2)c2c(C)cc(=O)oc2c1 (stereo unspecified),"inconclusive: 18.5 µM [inhibitor, single point]"
4,Cc1c([N+](=O)[O-])cc(C(=O)N2CCOCC2)cc1[N+](=O)[O-],"inconclusive: 18.5 µM [inhibitor, single point]"
5,COCc1nc(-c2ccc(-c3ccccc3)nc2OC)no1,"inconclusive: 8.28 µM [inhibitor, single point]"
6,COc1ccc(NC(=S)NCc2ccc(Cl)cc2)c(OC)c1,"inconclusive: 16.5 µM [inhibitor, single point]"
7,O=[N+]([O-])c1cc(-c2cnc3ccccc3n2)ccc1Oc1ccc(Cl)cc1,"inconclusive: 10.4 µM [inhibitor, single point]"
8,O=C(NCc1ccc2c(c1)OCO2)c1cc(-c2ccccc2Cl)on1,"inconclusive: 0.0037 µM [inhibitor, full curve, poor fit]"
9,CC1CN(S(=O)(=O)c2cccc(C(=O)Nc3ccc4c(c3)CCC4)c2)CC(C)O1 (stereo unspecified),"inconclusive: 18.5 µM [inhibitor, single point]"
10,C=CCn1c(SCC(=O)c2ccc(O)c(O)c2)nnc1-c1ccc(OC)cc1,"inconclusive: 13.1 µM [inhibitor, single point]"
11,NC(=S)N=Nc1c(O)[nH]c2ccc(F)cc12,"inconclusive: 18.5 µM [inhibitor, single point]"
12,Cc1ccc(C(=O)Nc2ncc3c(n2)CC(c2ccco2)CC3=O)cc1 (stereo unspecified),inactive
13,CC(=O)N1CCN(C(=O)c2cccc(S(=O)(=O)Nc3c(C)n(C)n(-c4ccccc4)c3=O)c2)CC1,inactive
14,O=CC1=C(c2ccccc2)Oc2ccccc2O1,"inconclusive: 18.5 µM [inhibitor, single point]"
15,COc1cccc(NC(=O)NC2CCN(Cc3nnnn3Cc3ccc(F)cc3)CC2)c1,"inconclusive: 14.7 µM [inhibitor, partial curve, poor fit]"
16,O=C(NCc1ccccc1F)C(=O)NCC1CCCN1S(=O)(=O)c1ccccc1 (stereo unspecified),"inconclusive: 18.5 µM [inhibitor, partial curve, poor fit]"
17,CCC/C=C(\CCC)C(NS(=O)(=O)c1ccc(C(F)(F)F)cc1)c1ccccc1 (stereo unspecified),active: 7.38 µM
18,O=C(Nc1cccnc1)c1ccc(Br)s1,inactive
19,C[C@@H]1CC2[C@@H]3C[C@H](F)C4=CC(=O)C(Cl)=C[C@]4(C)[C@@]3(F)[C@H](O)C[C@]2(C)[C@@]1(O)C(=O)CO (stereo partly specified),"inconclusive: 19 µM [inhibitor, single point]"
20,COCCN=c1scc(-c2ccccc2)n1/N=C/c1c[nH]c2ccccc12,"inconclusive: 18.5 µM [inhibitor, single point]"
21,O=C(c1ccc(F)cc1)n1c(NCc2ccccc2)n[nH]c1=S,inactive
22,COc1cc(S(=O)(=O)NCc2ccccc2)ccc1Br,"inconclusive: 18.5 µM [inhibitor, single point]"
23,CC(=O)N1CCC(C(=O)Nc2cc(C)cc(C)c2)CC1,inactive
24,COc1ccccc1C1=Nc2cccc3cccc(c23)N1,"inconclusive: 11.7 µM [inhibitor, partial curve]"

row,SMILES,Potency
1,C=CCN1C(=O)CSc2ccc(C(=O)NCc3cccs3)cc21,"inconclusive: 10.4 µM [inhibitor, single point]"
2,COc1ccc(NC(=O)NC2CCCCCCC2)cc1,inactive
3,CC(C)n1ncc2c(C(=O)N3CCN(Cc4ccc(Cl)s4)CC3)cc(C3CC3)nc21,"inconclusive: 13.1 µM [inhibitor, partial curve, poor fit]"
4,COC(=O)CCCCC1SCC2NC(=O)NC21 (stereo unspecified),"inconclusive: 9.28 µM [inhibitor, single point]"
5,Cc1cc(C)cc(NC(=O)CCCn2nc(C)c3c(C)n(-c4ccccc4)nc3c2=O)c1,active: 13.1 µM
6,CCOC(=O)N1CCN(C(=O)CNS(=O)(=O)c2c(C)cc(C)cc2C)CC1,"inconclusive: 5.22 µM [inhibitor, partial curve]"
7,Cc1c(O)ccoc1=O,inactive
8,CN1C(=O)C(O)(CC(=O)c2ccc(F)cc2)c2cc(Br)ccc21 (stereo unspecified),"inconclusive: 18.5 µM [inhibitor, single point]"
9,CCCCCCCN(C(=O)CCl)c1cccc(C)c1,"inconclusive: 18.5 µM [inhibitor, single point]"
10,CN(C)CC/C=C1\c2cc(F)ccc2CSc2ccccc21,"inconclusive: 18.5 µM [inhibitor, single point]"
11,O=C(O)c1cccc(S(=O)(=O)N2CCN(Cc3ccc4c(c3)OCO4)CC2)c1,inactive
12,COc1ccc(CNC(=O)CC2C(=O)NCCN2CC(C)(C)C)c(OC)c1 (stereo unspecified),active: 10.4 µM
13,N#Cc1ccc(CN2CCN(C(=O)CNC(=O)Cc3ccccc3)CC2)cc1,inactive
14,Cc1[nH]c2ccccc2c1/C=N/O,inactive
15,CN(C)S(=O)(=O)Oc1ccsc1C(=O)Nc1cccc(Cl)c1Cl,"inconclusive: 18.5 µM [inhibitor, single point]"
16,Cc1ccc(NC(=O)N2CCN(Cc3ccc4c(c3)OCO4)CC2)cc1,active: 13.1 µM
17,Cc1cc(Br)c2c(c1)/C(=C/C(=O)c1cccs1)C(=O)N2,"inconclusive: 18.5 µM [inhibitor, single point]"
18,CC(C)CNS(=O)(=O)c1ccc(CCC(=O)NCc2cccnc2)cc1,"inconclusive: 0.185 µM [inhibitor, partial curve, poor fit]"
19,CN(C)c1ccc(NC(=O)CSc2n[nH]c(-c3ccco3)n2)cc1,"inconclusive: 10.4 µM [inhibitor, single point]"
20,O=C(Oc1ccc(/C=N/Nc2ccccc2)cc1)c1ccccc1,inactive
21,O=C(CNCc1ccco1)Nc1ccccc1-n1cccc1,"inconclusive: 14.7 µM [inhibitor, partial curve, poor fit]"
22,c1ccc(C(c2ccccc2)N2CCN(Cc3nc(-c4cnccn4)no3)CC2)cc1,"inconclusive: 13.1 µM [inhibitor, partial curve]"
23,COc1cc(/C=C2/C(=N)N3N=C(C(C)C)SC3=NC2=O)ccc1OS(=O)(=O)c1ccccc1,inactive
24,CCN1C(=O)[C@@H]2C(C(=O)c3cnccn3)=NN[C@@H]2C1=O,inactive

row,SMILES,Potency
1,O=C(CC12CC3CC(CC(C3)C1)C2)N/N=C\c1ccc[nH]1,"inconclusive: 0.262 µM [inhibitor, full curve]"
2,COc1cc(/C=N/n2c(C)n[nH]c2=S)ccc1OCc1ccc(F)cc1,inactive
3,COc1ccccc1-c1coc2cc(OC(=O)/C=C/c3ccccc3)ccc2c1=O,"inconclusive: 18.5 µM [inhibitor, single point]"
4,CCN=c1scc(C)n1/N=C/c1cc(Br)c(O)c(OC)c1,active: 5.86 µM
5,Cc1ccc(NC(=S)N2CCN(S(C)(=O)=O)CC2)cc1C,"inconclusive: 18.5 µM [inhibitor, single point]"
6,CC(Oc1ccc2c(-c3ccccc3)cc(=O)oc2c1)C(=O)NCc1ccccn1 (stereo unspecified),inactive
7,COc1cc(CCC(=O)N2CC(C)OC(C)C2)cc(OC)c1OC (stereo unspecified),inactive
8,COc1cccc(NC(=S)N/N=C2\CC(C)(C)Oc3ccc(O)cc32)c1,"inconclusive: 3.7 µM [inhibitor, partial curve, poor fit]"
9,CCc1ccc(-c2cc(C)no2)cc1S(=O)(=O)N1CCCN(Cc2ccc(F)cc2)C1,"inconclusive: 18.5 µM [inhibitor, single point]"
10,Cc1c(NC(=O)/C=C/c2ccc(S(=O)(=O)N3CCOCC3)cc2)c(=O)n(-c2ccccc2)n1C,inactive
11,Cc1ccc(CCNS(=O)(=O)c2cnc[nH]2)cc1,"inconclusive: 0.0033 µM [inhibitor, full curve, poor fit]"
12,O=c1c2ccccc2nc2c3ccccc3cnn12,inactive
13,CCc1nnc(NC(=O)COc2ccc(N(C)S(=O)(=O)c3ccc(C)cc3)cc2)s1,inactive
14,COc1ccc(/C=C/c2c(-c3ccc(OC)cc3)oc3ccccc23)cc1,"inconclusive: 18.5 µM [inhibitor, single point]"
15,COc1ccccc1NC(=O)c1ccc(N2CC3CC(C2)c2cccc(=O)n2C3)c(NC(=O)c2ccncc2)c1 (stereo unspecified),"inconclusive: 10.4 µM [inhibitor, partial curve, poor fit]"
16,COc1ccc(/C=N/NC(C)(C)C)c(OC)c1,inactive
17,CCOc1ncccc1C(=O)N1CCN(c2cc(Cl)ccc2C)CC1,"inconclusive: 3.29 µM [inhibitor, partial curve, poor fit]"
18,CCOC(=O)c1ccccc1NC(=O)COC(=O)CSc1ccccc1,inactive
19,Cc1cc(S(=O)(=O)Nc2cccnc2)c(Cl)cc1Cl,"inconclusive: 18.5 µM [inhibitor, single point]"
20,COc1ccc(OCC(=O)N2CCN(Cc3nc4cc([N+](=O)[O-])ccc4n3C)CC2)cc1,"inconclusive: 10.4 µM [inhibitor, single point]"
21,N#C/C(=C\c1cn(Cc2ccccc2)c2ccccc12)C(=O)NCc1ccco1,"inconclusive: 0.131 µM [inhibitor, full curve, poor fit]"
22,Cc1cc(OCC(=O)Nc2c(C)n(C)n(-c3ccccc3)c2=O)c2c3c(c(=O)oc2c1)CCC3,"inconclusive: 1.85 µM [inhibitor, single point]"
23,COc1cccc(-c2ccc(C#N)c(SCC(=O)NCc3ccco3)n2)c1,inactive

# 4 entries from above, tab-delimited:
row	SMILES	Potency
6	CC(Oc1ccc2c(-c3ccccc3)cc(=O)oc2c1)C(=O)NCc1ccccn1 (stereo unspecified)	inactive
12	O=c1c2ccccc2nc2c3ccccc3cnn12	inactive
14	COc1ccc(/C=C/c2c(-c3ccc(OC)cc3)oc3ccccc23)cc1	inconclusive: 18.5 µM [inhibitor, single point]
15	COc1ccccc1NC(=O)c1ccc(N2CC3CC(C2)c2cccc(=O)n2C3)c(NC(=O)c2ccncc2)c1 (stereo unspecified)	inconclusive: 10.4 µM [inhibitor, partial curve, poor fit]
